Patent US12311011B2, “Des-acyl ghrelin and analogs as cancer therapies” (Cornell University, priority 2018, dated 2025)
For at least one compound, name, drawing or mass did not settle the structure.

Experiments:
Test in all cases: 3D/2D cell growth assay (cell number, Hoechst)
Type in all cases: cell-based, human
Details in all cases: 10 μM forskolin
MDA-MB-231 cells = system: MDA-MB-231 cells
MCF7 cells = system: MCF7 cells
Experimental: (§1) Human BC Cells. Human breast cancer cell lines, MCF7, T47D, ZR75, MDA-MB-231, MDA-MB-468, SKBR3, Hs578T and HEK293T, DU4475 and MDA-MB-157 were purchased from ATCC, USA. Human 4-OH tamoxifen resistant breast cancer cells (LCC2), RKO, RKO-T29, RKO-A19, HCT116, HCT116-HWT, HCT116-HMUT were cultured using methods were performed as described previously (Yun et al., Science 325(5947):1555-9 (2009)). MCF7, MDA-MB-231, MDA-MB-468, MDA-MB-157, Hs578T, HEK293T were grown in DMEM (Invitrogen), supplemented with 10% fetal calf serum (FCS) (Invitrogen), 100U/ml penicillin/streptomycin and 1% sodium pyruvate. ZR75, T47D, SKBR3 and DU4475 were grown in RPMI, supplemented with 10% FCS, 100 U/ml penicillin/streptomycin and 2 mM L-Glutamine (ThermoFisher Scientific). LCC2 were grown in phenol red-free DMEM, supplemented with 10% charcoal stripped serum (CCS; ThermoFisher Scientific), 100 U/ml penicillin/streptomycin and 1% sodium pyruvate. […]
(§2) Cell Growth and Proliferation Assays. […] The total number of cells, or the number of dead or proliferating cells was assessed using Hoechst, EarlyTox Dead Assay Kit (Molecular Devices), or Click-IT EdU Kit (ThermoFisher Scientific), respectively, and analyzed according to the manufacturer's protocols. […] The number of nuclei/Ethidium Homodimer-III+/EdU+ cells were counted using Imaris software (Bitplane).

MDA-MB-468 cells = system: MDA-MB-468 cells
Experimental: as §1, §2

Measured: growth of cells treated with adenylyl cyclase stimulator

C=C[C@@]1(C)CC(=O)[C@]2(O)[C@@]3(C)[C@@H](O)CCC(C)(C)[C@@H]3[C@H](O)[C@H](OC(C)=O)[C@@]2(C)O1 [forskolin]
stimulated the growth: all assays above
